Read-outs that look alike come from different tables or passages of the source.
System: NCI-60 cancer cell lines
Test: NCI-60 cancer cell line drug screen (GI50, MGM)
Type: cell-based
Conditions: Homo sapiens
Method: Cancer cells were incubated with the test compounds at five concentrations ranging from 100 μM to 10 nM for 48 h. […] The approximate average of GI50 values across the entire panel of NCI-60 cancer cell lines for each compound was recorded as the MGM value.

COc1cnc2c(c1)C(=O)c1c-2n(CCCN2CCCC2)c(=O)c2cc(Cl)ccc12 [Compound 2]
GI50 (SF-268, read-out: Antiproliferative Activities [GI50 (μM)]): 0.17 µM | GI50 (SNB-19, read-out: Antiproliferative Activities [GI50 (μM)]): 1.03 µM | GI50 (SNB-75, read-out: Antiproliferative Activities [GI50 (μM)]): 0.35 µM

From patent publication US20210382058A1, “PATIENT SELECTION FOR TREATMENT OF MYC POSITIVE CANCERS WITH INDENOISOQUINOLINES” (Purdue Research Foundation, priority 2020, published 2021)
